{"source": "PubChem BioAssay AID493246 | Drosophila RNAi Screening Center, 2011", "aim": "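Genes fly cells need to grow and stay alive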 (primary screen)", "cell system": "Drosophila Kc and S2R+ cells", "reagent": "long dsRNA against Drosophila genes", "measurement": "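Cell number per well after knock-down, printed as raw plate values; calls were based on per-plate z-scores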", "reading the numbers": "Kc cell number and S2R+ cell number: higher = more cells remaining", "active means": "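Active when the per-plate z-score of cell number is 3 or more in the direction of fewer cells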", "note": "In all, the deposit lists about 21,000 reagents; below is an unselected part of those that have a named target and a result. Over the whole deposit, 429 (2%) got an active call. 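Values are raw and not normalised between plates; calls rest on per-plate z-scores that were not deposited.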 Not stated in the record: the amount of reagent, the time to read-out."}
{"predicted target": "Ack-like", "amplicon": "DRSC07500", "Kc cell number, rep 1": 1.38e6, "Kc cell number, rep 2": 1.47e6, "S2R+ cell number, rep 1": 1.09e6, "S2R+ cell number, rep 2": 9.08e5, "call": "inactive"}
{"predicted target": "Topors", "amplicon": "DRSC06531", "Kc cell number, rep 1": 1.35e6, "Kc cell number, rep 2": 1.37e6, "S2R+ cell number, rep 1": 1.05e6, "S2R+ cell number, rep 2": 1.01e6, "call": "inactive"}
{"predicted target": "Spn42Da", "amplicon": "DRSC05025", "Kc cell number, rep 1": 1.55e6, "Kc cell number, rep 2": 1.57e6, "S2R+ cell number, rep 1": 1.29e6, "S2R+ cell number, rep 2": 1.44e6, "call": "inactive"}
{"predicted target": "msb1l", "amplicon": "DRSC03572", "Kc cell number, rep 1": 1.46e6, "Kc cell number, rep 2": 1.60e6, "S2R+ cell number, rep 1": 1.35e6, "S2R+ cell number, rep 2": 1.38e6, "call": "inactive"}
{"predicted target": "CG9896", "amplicon": "DRSC03962", "Kc cell number, rep 1": 6.70e5, "S2R+ cell number, rep 1": 8.67e5, "call": "inactive"}
{"predicted target": "CG9896", "amplicon": "DRSC04594", "Kc cell number, rep 1": 1.69e6, "Kc cell number, rep 2": 1.73e6, "S2R+ cell number, rep 1": 1.28e6, "S2R+ cell number, rep 2": 1.43e6, "call": "inactive"}
{"predicted target": "CG1463", "amplicon": "DRSC19603", "Kc cell number, rep 1": 5.40e5, "S2R+ cell number, rep 1": 8.86e5, "call": "inactive"}
{"predicted target": "atl", "amplicon": "DRSC16089", "Kc cell number, rep 1": 1.56e6, "Kc cell number, rep 2": 1.49e6, "S2R+ cell number, rep 1": 1.08e6, "S2R+ cell number, rep 2": 1.15e6, "call": "inactive"}
{"predicted target": "CG8635", "amplicon": "DRSC07226", "Kc cell number, rep 1": 1.37e6, "Kc cell number, rep 2": 1.41e6, "S2R+ cell number, rep 1": 1.14e6, "S2R+ cell number, rep 2": 1.21e6, "call": "inactive"}
{"predicted target": "CG13901", "amplicon": "DRSC08371", "Kc cell number, rep 1": 1.24e6, "Kc cell number, rep 2": 1.34e6, "S2R+ cell number, rep 1": 1.10e6, "S2R+ cell number, rep 2": 1.26e6, "call": "inactive"}
{"predicted target": "Stim", "amplicon": "DRSC20158", "Kc cell number, rep 1": 5.82e5, "S2R+ cell number, rep 1": 9.29e5, "call": "inactive"}
{"predicted target": "CG4781", "amplicon": "DRSC04488", "Kc cell number, rep 1": 1.81e6, "Kc cell number, rep 2": 1.88e6, "S2R+ cell number, rep 1": 1.29e6, "S2R+ cell number, rep 2": 1.27e6, "call": "inactive"}
{"predicted target": "dco", "amplicon": "DRSC16929", "Kc cell number, rep 1": 4.61e5, "S2R+ cell number, rep 1": 7.36e5, "call": "inactive"}
{"predicted target": "CG10949", "amplicon": "DRSC02112", "Kc cell number, rep 1": 1.34e6, "Kc cell number, rep 2": 1.38e6, "S2R+ cell number, rep 1": 1.22e6, "S2R+ cell number, rep 2": 1.27e6, "call": "inactive"}

Single entries from above.
Stim [DRSC20158], call: inactive
For “S2R+ cell number, rep 1”, Ack-like [DRSC07500] is entered as 1.09e6
